Some of the results follow. These are further read-outs of the screen, such as a control signal, another cell line or another target. No call is given for them. Most of these compounds were active or inconclusive in the main read-out, so they are no random draw. Potencies come from curve fits of mixed quality, noted in brackets.
Test: qHTS Assay to Find Inhibitors of Chronic Active B-Cell Receptor Signaling
Conditions: ABC-DLBCL IkBa-CBG/CBR reporter, luminescence ratio (green luciferase fused to IkBa over red control in TMD8 lymphoma cells), 4 h
Method in brief: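 Cell line TMD8 (human ABC DLBCL), stably expressing tet-inducible CBG68-IkBa fusion and CBR; IMDM/0.5% FBS; cpd up to 46 uM; dox induction, 4 h, 37C/5% CO2; dual luminescence; green/red ratio; MG132 control.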

[1] = measured here: CBR red luminescence, cell number

**Q.** With `CCn1c(CNc2ccc(F)cc2)nnc1SCC(=O)Nc1ccccc1OC` as the molecule, how does the AC50 [1] read?
**A.** 23.1 µM [falling, single point]

**Q.** With `Cc1cc(C(=O)CSc2nc3ccccc3c(=O)n2C)c(C)n1CC1CCCO1` (stereo not drawn) as the molecule, how does the AC50 [1] read?
**A.** 6.31 µM [falling, partial curve, poor fit]

**Q.** For `Cc1cc(NC(=O)COC(=O)c2oc3c(ccc4ccccc43)c2C)no1`, which AC50 [1] is on record?
**A.** 1.46 µM [rising, full curve]

**Q.** For `CN(C)S(=O)(=O)c1ccc(C(=O)NCc2ccco2)cc1`, which AC50 [1] is on record?
**A.** 1.12 µM [rising, single point]

**Q.** Which AC50 [1] does the source give for `CC1=CN2C(=N)/C(=C/c3ccco3)C(=O)N=C2S1` here?
**A.** 14.6 µM [falling, single point]

**Q.** Which AC50 [1] does the source give for `CCOC(=O)C1=C(c2ccc(OC)cc2)C(=O)c2ccccc2C1=O` here?
**A.** 5.8 µM [falling, full curve]

**Q.** Which AC50 [1] does the source give for `CSc1ccccc1NC(=O)Nc1cccc2ccccc12` here?
**A.** 0.1 µM [falling, full curve, poor fit]

**Q.** With `COc1ccccc1CNc1ncnc2nc[nH]c12` as the molecule, how does the AC50 [1] read?
**A.** 10.3 µM [falling, partial curve, poor fit]

**Q.** For `C#CCOc1ccc(Cl)cc1/C=N/O`, which AC50 [1] is on record?
**A.** 35.5 µM [rising, single point]

**Q.** For `CCCCN(C)c1ncnc2c1cnn2-c1cccc(Cl)c1`, which AC50 [1] is on record?
**A.** 25.1 µM [rising, single point]

**Q.** For `CCS(=O)(=O)c1ccc(O)c(NC(=O)Nc2cccc3ccccc23)c1`, which AC50 [1] is on record?
**A.** 14.1 µM [falling, partial curve]

**Q.** With `O=C(Nc1cccc(F)c1)N1C2CCC1CC(O)(c1cccnc1)C2` (stereo not drawn) as the molecule, how does the AC50 [1] read?
**A.** 0.891 µM [rising, full curve, poor fit]

**Q.** For `O=C(NC1(C(F)(F)F)Oc2ccccc2O1)N1CCCC1`, which AC50 [1] is on record?
**A.** 10 µM [falling, partial curve]

**Q.** Which AC50 [1] does the source give for `Clc1cccc(Cl)c1CSc1nnc([C@@H]2CCCN2)o1` here?
**A.** 7.08 µM [rising, partial curve, poor fit]

**Q.** With `CCOC(=O)c1cc(-c2ccc3c(c2)OCCO3)nc2c1c(C)nn2CCC#N` as the molecule, how does the AC50 [1] read?
**A.** 2.59 µM [rising, full curve, poor fit]

**Q.** For `O=C1CN(C(=O)COC(=O)/C=C/c2ccco2)c2ccccc2N1`, which AC50 [1] is on record?
**A.** 0.398 µM [rising, partial curve, poor fit]

**Q.** For `COc1cccc(-c2nn(-c3ccccc3)cc2/C=C\C(=O)c2cccs2)c1`, which AC50 [1] is on record?
**A.** 2.82 µM [falling, full curve, poor fit]

**Q.** Which AC50 [1] does the source give for `CCc1ccc2[nH]c3nc(SCC(=O)NNC(=O)c4ccc(C(C)(C)C)cc4)nnc3c2c1` here?
**A.** 29.1 µM [rising, single point]

**Q.** Which AC50 [1] does the source give for `COc1ccc(C(=O)O/N=C(\N)c2ccc(OC)c(OC)c2)c(OC)c1` here?
**A.** 0.251 µM [rising, full curve, poor fit]

**Q.** With `O=C(O)COc1ccccc1-c1ccccc1` as the molecule, how does the AC50 [1] read?
**A.** 35.5 µM [rising, single point]

**Q.** Which AC50 [1] does the source give for `CCN1C(=NCCc2cccnc2)N[C@@H](c2ccccc2)[C@H](C(=O)OC)[C@H]1C` here?
**A.** 0.794 µM [rising, full curve, poor fit]

**Q.** Which AC50 [1] does the source give for `Cc1ccc(/C=C/C(=O)c2c(C)nc3ccccn23)cc1` here?
**A.** 4.47 µM [rising, partial curve, poor fit]

**Q.** Which AC50 [1] does the source give for `COc1ccc2c(c1)c(=O)c(C(=O)c1ccccc1)cn2Cc1ccc(C)cc1` here?
**A.** 29.1 µM [falling, partial curve, poor fit]

**Q.** With `O=C(O)c1ccc(NC2=Nc3cccc4cccc2c34)cc1` as the molecule, how does the AC50 [1] read?
**A.** 0.112 µM [falling, full curve, poor fit]

**Q.** With `COc1ccc(OCC(=O)Nc2ccc3c(c2)n(C)c(=O)n3C)cc1` as the molecule, how does the AC50 [1] read?
**A.** 35.5 µM [rising, single point]

**Q.** Which AC50 [1] does the source give for `CCc1ccc(CNC(=O)Cc2ccc(NC(=O)C3=C(C)OCCS3)cc2)cc1` here?
**A.** 2.82 µM [rising, full curve]

**Q.** What about the AC50 (measured here: IkBa-CBG green luminescence) of the same molecule?
**A.** 2.82 µM [falling, full curve]

**Q.** For `CCCC1O[C@@H]2C[C@H]3[C@@H]4CCC5=CC(=O)C=C[C@]5(C)[C@H]4[C@@H](O)C[C@]3(C)[C@]2(C(=O)CO)O1` (stereo partly drawn), which AC50 [1] is on record?
**A.** 14.6 µM [rising, partial curve, poor fit]

**Q.** Which AC50 [1] does the source give for `C[C@@H](OC(=O)c1[nH]cnc1C(=O)N1CCc2ccccc2C1)c1ccccc1` here?
**A.** 0.058 µM [rising, full curve, poor fit]

**Q.** For `COc1cccc(OCC(=O)NNC(=O)c2ccc3ccccc3c2O)c1`, which AC50 [1] is on record?
**A.** 35.5 µM [falling, single point]

**Q.** For `O=C(NCC1COc2ccccc2O1)c1ccc(Cl)cc1` (stereo not drawn), which AC50 [1] is on record?
**A.** 7.08 µM [rising, partial curve]

**Q.** With `NC(=O)c1c(NC(=S)Nc2ccc(F)cc2)sc2c1CCCC2` as the molecule, how does the AC50 [1] read?
**A.** 5.62 µM [rising, single point]

**Q.** With `CC(=O)Nc1ccc(OCC(O)Cn2ccnc2)cc1` (stereo not drawn) as the molecule, how does the AC50 [1] read?
**A.** 5.62 µM [falling, partial curve]

**Q.** With `C/C(=N\NC(=O)c1c(Cl)cnn1C)c1cccnc1` as the molecule, how does the AC50 [1] read?
**A.** 10 µM [falling, partial curve, poor fit]

**Q.** With `CC1CC(C)CN(C(=S)Nc2ccc(OC(F)F)cc2)C1` (stereo not drawn) as the molecule, how does the AC50 [1] read?
**A.** 2.91 µM [rising, full curve, poor fit]

**Q.** Which AC50 [1] does the source give for `Cc1nc2c3ccccc3nc(SCC(=O)N3CC(C)CC(C)C3)n2n1` (stereo not drawn) here?
**A.** 6.51 µM [falling, single point]

**Q.** With `Cc1cc(C)nc(N/N=C/c2ccccc2Cl)n1` as the molecule, how does the AC50 [1] read?
**A.** 14.1 µM [falling, partial curve]

**Q.** With `CC1Cc2ccccc2N1C(=O)CN(C)CC(=O)Nc1ccc(F)cc1` (stereo not drawn) as the molecule, how does the AC50 [1] read?
**A.** 20.6 µM [falling, single point]

**Q.** For `COc1cc(/C=N/NC(=O)c2cccnc2)cc(Br)c1O`, which AC50 [1] is on record?
**A.** 12.6 µM [falling, single point]

**Q.** Which AC50 [1] does the source give for `Clc1cccc(-n2ncc3c(NCCCc4ccccc4)ncnc32)c1` here?
**A.** 2.51 µM [falling, partial curve, poor fit]

**Q.** With `CC(=O)c1ccc(NC(=O)CSc2nnc(C3CC3)n2C2CC2)cc1` as the molecule, how does the AC50 [1] read?
**A.** 4.11 µM [rising, single point]

**Q.** With `Cc1ccc(C(=O)Nc2nc3ccccc3c(=O)s2)cc1` as the molecule, how does the AC50 [1] read?
**A.** 6.31 µM [falling, full curve]

**Q.** For `CCCn1c(NC(=O)c2ccc(F)cc2)nc2ccccc21`, which AC50 [1] is on record?
**A.** 8.91 µM [rising, partial curve, poor fit]

— PubChem BioAssay AID493014 (National Center for Advancing Translational Sciences (NCATS), 2011)
